The test can be described thus: qHTS Assay to Find Inhibitors of Chronic Active B-Cell Receptor Signaling. The note with it: ABC-DLBCL IkBa-CBG/CBR reporter, luminescence ratio (green luciferase fused to IkBa over red control in TMD8 lymphoma cells), 4 h. The essentials: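 Concentration-response series (up to 46 uM) were applied to TMD8 dual-reporter cells for 4 h at 37C with doxycycline. Green/red ratio, after filter-overlap correction, defined %Activity; red signal alone was normalised to basal cells and zero luminescence.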

Setting [1] is: measured here: CBR red luminescence, cell number.
The mark [2] stands for this setting: measured here: IkBa-CBG green luminescence.

Structures are written as SMILES. The list shows a part of the results. The main result of the screen is listed elsewhere. These columns were measured beside it and carry no call. The list favours compounds with an active or inconclusive main result. The note in brackets gives the kind of curve behind each potency; many fits are weak.

Usually AC50 stands for the midpoint of the concentration-response curve, whichever way the signal moves.

For the compound `O=C(COc1ccc2c(-c3ccccc3)cc(=O)oc2c1)N[C@H](Cc1c[nH]c2ccccc12)C(=O)O`, under setting [1], the AC50 was 2.82 µM [falling, full curve, poor fit].

Consider `Cc1ccc(S(=O)(=O)CC(=O)c2ccccc2)cc1`, for which, under setting [1], the AC50 is 11.2 µM [rising, partial curve, poor fit].

`N/C(Cc1ccc(Cl)cc1Cl)=N\OC(=O)Cc1cccs1`: the AC50 under setting [1] is 20.6 µM [rising, partial curve, poor fit].

With `CN(Cc1ccccc1)c1nc2c(c(=O)[nH]c(=O)n2C)n1Cc1ccccc1Cl`, the AC50 runs as follows: under setting [1], 3.66 µM [falling, single point]; under setting [2], 6.51 µM [rising, single point].

Take `O=C1N=c2ccccc2=C1c1sc(=S)n(NC(=O)c2cccc(O)c2)c1O`: the AC50 under setting [1] was 12.6 µM [falling, partial curve, poor fit].

Consider `Cc1ccc(NC(=O)COC(=O)c2ccc(NC(=O)CC#N)cc2)cc1S(=O)(=O)N1CCOCC1`, for which the concentration at half-maximal activity (AC50) under setting [1] is 20.6 µM [falling, single point].

On to `Cc1cc(Nc2ccccc2)nc2cc(O)ccc12`, for which the AC50 was 9.2 µM [rising, partial curve] under setting [1] and 29.1 µM [falling, single point] under setting [2].

For `CC(C)N(NC(=O)c1cccc2ccccc12)C(C)C`, the concentration at half-maximal activity (AC50) under setting [1] was 14.1 µM [rising, single point].

With `CCOc1ccc(NC(=O)CN(C)S(=O)(=O)c2cccs2)cc1`, under setting [1], the AC50 is 20.6 µM [falling, partial curve].

Consider `O=C(N/N=C/c1cccs1)c1ccc2nc[nH]c2c1`, for which, under setting [1], the AC50 was 35.5 µM [falling, single point].

Regarding `COC(=O)CCSc1cc(NCCOC(C)=O)c([N+](=O)[O-])c2nonc12`, the AC50 under setting [1] is 23.1 µM [falling, single point].

`O=C(COc1ccccc1)N1N=C(c2cccnc2)CC1(O)C(F)(F)F` (centres undefined): under setting [1], the AC50 is 10.3 µM [rising, partial curve, poor fit].

With `CCn1c(C(=O)O)c(S(=O)(=O)c2ccc(Cl)cc2)c2ccccc21`, the AC50 under setting [1] is 8.91 µM [rising, partial curve, poor fit].

Turning to `CC1CN(C(=O)CCC(=O)NC(C)c2ccccc2)c2cc(Cl)ccc2O1` (centres undefined), the AC50 under setting [1] was 8.91 µM [falling, partial curve].

Regarding `COc1cccc(-n2nnnc2SCC(=O)Nc2ccc(C(C)=O)cc2)c1`, the half-maximal activity concentration (AC50) under setting [1] is 23.1 µM [rising, single point].

`CNCC[C@H](Oc1cccc2ccccc12)c1cccs1`: under setting [1], the AC50 is 22.4 µM [falling, partial curve, poor fit].

Turning to `CC1CCCN(c2ncnc3c2cnn3-c2ccccc2)C1` (centres undefined), the AC50 under setting [1] was 35.5 µM [falling, single point].
